# From the supplement of paper PMC6411743
# Protein sequences, listed by entry. Tags and fused reporters are not part of them. Lines headed by an entry give the natural chain unless they say otherwise; changes in a name come on top.
# UniProt P57740: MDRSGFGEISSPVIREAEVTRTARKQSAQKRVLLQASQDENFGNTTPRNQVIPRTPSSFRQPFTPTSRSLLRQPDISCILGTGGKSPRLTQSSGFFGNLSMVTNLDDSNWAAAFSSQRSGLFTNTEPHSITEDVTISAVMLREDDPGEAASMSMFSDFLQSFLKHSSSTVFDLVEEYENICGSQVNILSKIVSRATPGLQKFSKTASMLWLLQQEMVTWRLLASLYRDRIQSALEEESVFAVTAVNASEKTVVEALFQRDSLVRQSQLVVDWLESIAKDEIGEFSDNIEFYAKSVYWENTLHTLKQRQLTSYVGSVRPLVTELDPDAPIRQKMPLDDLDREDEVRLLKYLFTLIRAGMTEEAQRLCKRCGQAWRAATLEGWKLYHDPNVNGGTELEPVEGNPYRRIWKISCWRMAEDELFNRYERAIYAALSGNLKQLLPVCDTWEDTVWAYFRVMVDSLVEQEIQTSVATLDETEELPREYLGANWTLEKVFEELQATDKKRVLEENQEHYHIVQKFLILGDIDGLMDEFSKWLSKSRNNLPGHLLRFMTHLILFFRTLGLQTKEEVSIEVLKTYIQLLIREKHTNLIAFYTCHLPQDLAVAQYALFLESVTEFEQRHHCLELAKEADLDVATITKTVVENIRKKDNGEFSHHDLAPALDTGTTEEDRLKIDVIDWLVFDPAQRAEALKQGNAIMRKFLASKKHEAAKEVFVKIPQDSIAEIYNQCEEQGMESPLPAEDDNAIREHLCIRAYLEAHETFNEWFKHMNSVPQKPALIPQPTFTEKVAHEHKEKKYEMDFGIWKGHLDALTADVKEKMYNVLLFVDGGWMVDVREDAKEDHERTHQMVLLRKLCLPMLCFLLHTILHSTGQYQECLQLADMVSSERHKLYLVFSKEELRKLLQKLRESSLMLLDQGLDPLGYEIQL
# UniProt Q05086: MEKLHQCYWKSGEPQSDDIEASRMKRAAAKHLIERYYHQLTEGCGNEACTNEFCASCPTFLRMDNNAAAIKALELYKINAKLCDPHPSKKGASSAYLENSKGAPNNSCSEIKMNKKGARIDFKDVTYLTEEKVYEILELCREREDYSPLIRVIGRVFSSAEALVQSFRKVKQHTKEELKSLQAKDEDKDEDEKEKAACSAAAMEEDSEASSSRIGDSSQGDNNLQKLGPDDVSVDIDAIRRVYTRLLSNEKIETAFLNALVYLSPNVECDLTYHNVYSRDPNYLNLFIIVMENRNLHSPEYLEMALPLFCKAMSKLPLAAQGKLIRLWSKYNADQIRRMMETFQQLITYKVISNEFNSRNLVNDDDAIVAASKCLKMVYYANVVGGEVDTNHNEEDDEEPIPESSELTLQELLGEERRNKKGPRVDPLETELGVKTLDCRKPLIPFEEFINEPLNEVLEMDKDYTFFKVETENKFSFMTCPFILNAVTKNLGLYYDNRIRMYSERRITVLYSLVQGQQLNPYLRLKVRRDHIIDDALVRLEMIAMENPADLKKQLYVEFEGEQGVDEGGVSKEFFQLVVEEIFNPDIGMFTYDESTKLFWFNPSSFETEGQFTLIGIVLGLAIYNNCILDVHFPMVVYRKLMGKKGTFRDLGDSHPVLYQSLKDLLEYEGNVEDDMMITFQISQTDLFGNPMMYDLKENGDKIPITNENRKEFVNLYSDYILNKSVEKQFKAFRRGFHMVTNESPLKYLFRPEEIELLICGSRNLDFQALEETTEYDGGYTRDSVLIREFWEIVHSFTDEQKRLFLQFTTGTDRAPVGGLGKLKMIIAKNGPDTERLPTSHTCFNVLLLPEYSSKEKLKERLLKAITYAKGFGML
# UniProt P78310: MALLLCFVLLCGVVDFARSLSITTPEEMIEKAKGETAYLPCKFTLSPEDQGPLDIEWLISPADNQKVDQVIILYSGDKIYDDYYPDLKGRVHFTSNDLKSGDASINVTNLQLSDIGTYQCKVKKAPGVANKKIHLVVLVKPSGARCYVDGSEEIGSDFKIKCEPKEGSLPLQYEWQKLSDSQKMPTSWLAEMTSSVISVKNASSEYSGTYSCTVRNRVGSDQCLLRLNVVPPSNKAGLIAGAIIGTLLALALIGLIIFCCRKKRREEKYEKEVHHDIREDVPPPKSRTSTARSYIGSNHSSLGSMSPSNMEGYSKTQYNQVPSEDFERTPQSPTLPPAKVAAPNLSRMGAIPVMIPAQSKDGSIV
# UniProt Q01664: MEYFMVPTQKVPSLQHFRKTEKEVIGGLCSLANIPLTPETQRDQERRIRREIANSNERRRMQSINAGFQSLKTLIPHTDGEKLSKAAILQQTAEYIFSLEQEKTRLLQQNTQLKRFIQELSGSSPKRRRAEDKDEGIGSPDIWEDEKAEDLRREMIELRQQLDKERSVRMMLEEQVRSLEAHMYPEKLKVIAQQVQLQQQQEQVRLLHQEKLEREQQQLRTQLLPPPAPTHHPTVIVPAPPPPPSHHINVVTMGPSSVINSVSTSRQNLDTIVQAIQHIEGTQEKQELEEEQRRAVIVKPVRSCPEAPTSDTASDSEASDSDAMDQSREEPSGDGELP
# UniProt P60468, whole entry: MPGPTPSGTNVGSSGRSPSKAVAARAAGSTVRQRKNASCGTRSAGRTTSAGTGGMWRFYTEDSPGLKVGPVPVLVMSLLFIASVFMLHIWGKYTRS
# UniProt P61956, whole entry: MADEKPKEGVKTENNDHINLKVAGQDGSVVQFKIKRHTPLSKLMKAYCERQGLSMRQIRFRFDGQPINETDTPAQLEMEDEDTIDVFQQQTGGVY
# UniProt Q00722, whole entry: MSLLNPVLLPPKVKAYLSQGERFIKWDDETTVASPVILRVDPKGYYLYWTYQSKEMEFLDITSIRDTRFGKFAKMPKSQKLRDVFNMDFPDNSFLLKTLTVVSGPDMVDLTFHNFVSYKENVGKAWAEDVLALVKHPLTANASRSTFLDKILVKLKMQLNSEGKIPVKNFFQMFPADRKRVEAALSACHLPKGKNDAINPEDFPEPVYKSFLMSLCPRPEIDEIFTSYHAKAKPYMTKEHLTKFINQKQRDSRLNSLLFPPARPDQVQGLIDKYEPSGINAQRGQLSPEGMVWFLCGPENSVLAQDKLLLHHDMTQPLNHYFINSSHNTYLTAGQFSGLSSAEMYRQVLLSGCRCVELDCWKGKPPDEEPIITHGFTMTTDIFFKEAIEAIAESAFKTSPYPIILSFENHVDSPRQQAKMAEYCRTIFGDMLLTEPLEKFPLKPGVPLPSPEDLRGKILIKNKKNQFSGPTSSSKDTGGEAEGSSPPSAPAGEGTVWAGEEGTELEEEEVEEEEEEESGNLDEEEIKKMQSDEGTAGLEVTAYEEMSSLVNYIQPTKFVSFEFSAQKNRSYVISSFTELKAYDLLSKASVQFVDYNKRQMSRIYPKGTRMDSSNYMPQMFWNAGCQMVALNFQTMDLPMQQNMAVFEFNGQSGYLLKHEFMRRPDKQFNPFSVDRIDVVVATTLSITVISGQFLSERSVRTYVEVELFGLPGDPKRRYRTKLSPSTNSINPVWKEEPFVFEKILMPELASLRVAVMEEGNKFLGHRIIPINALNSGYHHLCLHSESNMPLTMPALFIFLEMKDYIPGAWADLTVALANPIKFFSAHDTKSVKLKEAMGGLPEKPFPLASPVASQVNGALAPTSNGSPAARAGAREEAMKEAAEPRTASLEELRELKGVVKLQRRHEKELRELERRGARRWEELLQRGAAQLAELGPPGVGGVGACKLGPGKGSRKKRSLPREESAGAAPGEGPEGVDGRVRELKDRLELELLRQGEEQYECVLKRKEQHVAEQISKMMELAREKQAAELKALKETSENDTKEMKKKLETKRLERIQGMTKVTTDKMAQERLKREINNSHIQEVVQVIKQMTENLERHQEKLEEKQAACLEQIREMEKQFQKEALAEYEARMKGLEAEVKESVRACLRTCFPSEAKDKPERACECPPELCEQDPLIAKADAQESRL
# UniProt P56159: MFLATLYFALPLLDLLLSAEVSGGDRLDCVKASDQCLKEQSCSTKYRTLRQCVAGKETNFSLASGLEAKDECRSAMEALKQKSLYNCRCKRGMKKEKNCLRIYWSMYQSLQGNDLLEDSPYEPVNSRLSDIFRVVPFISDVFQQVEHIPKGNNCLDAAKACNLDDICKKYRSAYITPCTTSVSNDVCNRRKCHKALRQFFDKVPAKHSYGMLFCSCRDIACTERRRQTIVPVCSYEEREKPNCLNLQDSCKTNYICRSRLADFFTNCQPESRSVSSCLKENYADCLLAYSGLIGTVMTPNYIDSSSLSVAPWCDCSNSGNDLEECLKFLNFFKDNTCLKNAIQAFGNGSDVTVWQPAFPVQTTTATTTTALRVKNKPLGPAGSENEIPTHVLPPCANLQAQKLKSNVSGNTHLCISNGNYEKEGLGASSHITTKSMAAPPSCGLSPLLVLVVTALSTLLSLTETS
# UniProt P61024, whole entry: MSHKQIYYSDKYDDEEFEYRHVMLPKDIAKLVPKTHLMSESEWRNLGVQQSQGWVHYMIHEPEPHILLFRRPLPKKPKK
# UniProt P84103: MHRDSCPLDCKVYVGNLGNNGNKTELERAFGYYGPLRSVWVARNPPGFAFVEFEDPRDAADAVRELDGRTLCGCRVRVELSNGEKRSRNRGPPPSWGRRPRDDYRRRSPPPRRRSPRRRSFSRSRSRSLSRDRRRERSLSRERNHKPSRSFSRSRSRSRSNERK
# UniProt P82909: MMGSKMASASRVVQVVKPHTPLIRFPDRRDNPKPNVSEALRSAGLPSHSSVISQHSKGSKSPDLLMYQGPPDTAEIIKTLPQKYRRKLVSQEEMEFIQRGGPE
# UniProt Q06210: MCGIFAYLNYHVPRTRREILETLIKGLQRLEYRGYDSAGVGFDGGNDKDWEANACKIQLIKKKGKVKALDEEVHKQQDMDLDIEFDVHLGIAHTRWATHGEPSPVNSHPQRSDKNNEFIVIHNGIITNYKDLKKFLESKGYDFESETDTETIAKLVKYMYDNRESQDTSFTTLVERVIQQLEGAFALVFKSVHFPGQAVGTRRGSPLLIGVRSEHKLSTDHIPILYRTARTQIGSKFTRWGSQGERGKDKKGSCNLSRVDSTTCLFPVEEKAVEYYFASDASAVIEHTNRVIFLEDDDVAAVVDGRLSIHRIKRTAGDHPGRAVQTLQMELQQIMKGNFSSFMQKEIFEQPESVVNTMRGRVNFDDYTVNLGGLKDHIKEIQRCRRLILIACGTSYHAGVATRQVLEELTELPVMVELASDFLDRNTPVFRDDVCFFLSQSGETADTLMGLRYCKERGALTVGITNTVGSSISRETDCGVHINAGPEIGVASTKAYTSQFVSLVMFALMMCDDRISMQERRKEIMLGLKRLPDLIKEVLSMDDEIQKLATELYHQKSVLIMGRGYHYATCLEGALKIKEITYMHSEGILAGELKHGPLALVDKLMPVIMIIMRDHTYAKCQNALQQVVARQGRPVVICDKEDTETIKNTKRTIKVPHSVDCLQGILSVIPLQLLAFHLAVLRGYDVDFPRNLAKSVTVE
# UniProt P61163, whole entry: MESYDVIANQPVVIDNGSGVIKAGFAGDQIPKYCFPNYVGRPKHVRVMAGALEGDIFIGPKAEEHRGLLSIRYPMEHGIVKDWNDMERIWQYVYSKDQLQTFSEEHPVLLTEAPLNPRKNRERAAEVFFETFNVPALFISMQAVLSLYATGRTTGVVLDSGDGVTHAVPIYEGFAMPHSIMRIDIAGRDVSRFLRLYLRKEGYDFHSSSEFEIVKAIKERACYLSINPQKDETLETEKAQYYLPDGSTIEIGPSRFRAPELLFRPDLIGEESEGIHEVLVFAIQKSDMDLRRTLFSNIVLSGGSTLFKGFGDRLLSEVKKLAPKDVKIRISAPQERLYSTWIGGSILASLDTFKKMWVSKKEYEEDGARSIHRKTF
# ± gives the standard deviation of the averaged measurements. This is a selection; strong and weak results do not stand in their true shares.
# Compound: Nc1ncnc2c1ncn2[C@@H]1O[C@H](COP(=O)(O)OP(=O)(O)NP(=O)(O)O)[C@@H](O)[C@H]1O [adenylyl imidodiphosphate]
# Assay: NP40-soluble protein abundance relative to vehicle (solubility fold change) (ratio); higher = more soluble protein in presence of AMP-PNP
# In short: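 Jurkat crude lysate (Dounce-homogenised) was treated with eight concentrations from 0.1 to 10 mM for 10 min at room temperature, then 3 min at 37 °C. It was solubilised with 0.8% NP40 and benzonase (60 min, 4 °C) and ultracentrifuged, and the supernatant was TMT-labelled for LC-MS/MS. Intensities were vsn-normalised, and the value is the fold change against the NP40-processed vehicle per replicate, from three independent experiments.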
Target,NP40-soluble protein abundance (concentration: 1mM),NP40-soluble protein abundance (concentration: 2mM),NP40-soluble protein abundance (concentration: 4mM),NP40-soluble protein abundance (concentration: 6mM),NP40-soluble protein abundance (concentration: 8mM),NP40-soluble protein abundance (concentration: 10mM)
NUP107 (UniProt P57740),0.986 ± 0.011,0.962 ± 0.022,0.988 ± 0.04,0.955 ± 0.012,0.947 ± 0.019,0.975 ± 0.051
UniProt Q05086 and related entries,0.968 ± 0.016,0.94 ± 0.035,0.939 ± 0.0097,0.967 ± 0.013,0.97 ± 0.017,0.941 ± 0.019
UniProt P78310 and related entries,1.02 ± 0.032,1.06 ± 0.041,1.02 ± 0.047,0.986 ± 0.033,0.983 ± 0.012,1 ± 0.071
TFAP4 (UniProt Q01664),0.978 ± 0.061,1.03 ± 0.039,0.972 ± 0.017,0.957 ± 0.025,0.946 ± 0.013,0.958 ± 0.043
SEC61B (UniProt P60468),0.99 ± 0.032,1.09 ± 0.096,1.07 ± 0.046,1.08 ± 0.089,1.06 ± 0.089,1.1 ± 0.092
UniProt P62081,0.97 ± 0.043,0.945 ± 0.029,0.936 ± 0.099,0.943 ± 0.014,0.953 ± 0.08,0.977 ± 0.09
UniProt P61956,1.02 ± 0.025,1.03 ± 0.024,0.962 ± 0.02,0.916 ± 0.063,0.902 ± 0.045,0.877 ± 0.048
UniProt Q00722 and related entries,1.02 ± 0.049,1.02 ± 0.05,1.04 ± 0.038,1.01 ± 0.018,1 ± 0.027,0.999 ± 0.052
UniProt P56159 and related entries,1.01 ± 0.013,1.03 ± 0.061,0.982 ± 0.037,0.993 ± 0.032,0.976 ± 0.034,0.981 ± 0.014
UniProt P61024 and related entries,1.01 ± 0.052,0.991 ± 0.036,0.967 ± 0.071,0.943 ± 0.056,0.962 ± 0.041,0.938 ± 0.08
UniProt P62701,0.95 ± 0.063,0.87 ± 0.091,0.879 ± 0.11,0.873 ± 0.065,0.821 ± 0.071,0.851 ± 0.13
UniProt P84103 and related entries,1.02 ± 0.034,1.09 ± 0.12,1.07 ± 0.028,1.11 ± 0.052,1.1 ± 0.095,1.15 ± 0.12
MRPS36 (UniProt P82909),1.01 ± 0.027,1 ± 0.023,1.01 ± 0.035,0.973 ± 0.046,0.977 ± 0.031,1.01 ± 0.026
UniProt Q06210 and related entries,0.972 ± 0.029,0.895 ± 0.093,0.951 ± 0.027,0.985 ± 0.037,1.02 ± 0.038,0.945 ± 0.029
UniProt P61163,0.97 ± 0.05,0.868 ± 0.12,0.935 ± 0.076,0.935 ± 0.031,0.975 ± 0.076,0.914 ± 0.12

# Some entries already given with just NP40-soluble protein abundance (concentration: 4mM):
Target | NP40-soluble protein abundance (concentration: 4mM)
UniProt P62081 | 0.936 ± 0.099
MRPS36 (UniProt P82909) | 1.01 ± 0.035
